Values of other authors in US20120308616A1, “SUBMICRO EMULSION OF PACLITAXEL USING STEROID COMPLEX AS INTERMEDIATE CARRIER” (INSTITUTE OF MATARIA MEDICA, CHINESE ACADEMY OF MEDICAL …, priority 2009, published 2012).
Values after ≈ are worked out from the molar mass of the structure shown.

solubility in water: 6 ng/mL (≈ 7.03 nM)
Compound: CC(=O)O[C@H]1C(=O)[C@@]2(C)[C@H]([C@H](OC(=O)c3ccccc3)[C@]3(O)C[C@H](OC(=O)[C@H](O)[C@@H](NC(=O)c4ccccc4)c4ccccc4)C(C)=C1C3(C)C)[C@]1(OC(C)=O)CO[C@@H]1C[C@@H]2O [Paclitaxel]
